Library screen at single concentrations

Each number is a percent effect as filed. The record does not define 0% and 100%; most values in the screen are far below 50% and negative numbers occur (in some assays of this library far below -100). This is an unselected part of the compounds tested. Two or more numbers in one place are separate tests of the same structure; such repeats can differ widely.

A: 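Phenotypic screen: M. tuberculosis growth, cholesterol and DPPC medium, 4 days; the read-out is not stated. Compounds at 50 µM. Direction is inferred from retests: higher values go with more growth inhibition. Of about 69,000 compounds tested this way, about 370 (0.54%) reached 50% or more in at least one test.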
B: 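Whole-cell growth test on Mycobacterium tuberculosis, read after 3 days in glucose-containing 7H9 medium; the read-out is not stated. Compounds at 50 µM. Direction is inferred from retests: higher values go with more growth inhibition. Size under these conditions: about 69,000 compounds, about 760 of them at 50% or above in at least one test.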

* Cc1noc(C)c1CCCNc1cnccn1 : A: -17.26%; B: -15.98% and -3.131%
* CNc1ncc(CN(C)c2nccc(CCC(F)(F)F)n2)cn1 : A: 35.26%; B: 44.33%
* CN(C)C(C(=O)NCc1cc(C(C)(C)C)n[nH]1)c1ccc(F)cc1 (centres unmarked) : A: -6.685%; B: 20.62%
* Cc1cc(C)c(Cn2cncn2)cc1CN1CC[C@H](CO)[C@@H](O)C1 : A: -12.52% and -14.13%; B: -46.31%
* CC(NC(=O)NCCCN1CCCCCC1)c1nncn1C (centres unmarked) : A: 0.3112%; B: 22.22%
* CN(C)CCN1CC2(CCN(C(=O)c3cnccn3)CC2)OC1=O : A: -10.19% and -23.1%; B: -30.73%
* Cc1ccc(F)c(S(=O)(=O)NCc2cccc(CS(C)(=O)=O)c2)c1 : A: 8.439%; B: 6.459% and -0.1205%
* Cn1cncc1C(=O)N1CCCC(c2ccn[nH]2)C1 (centres unmarked) : A: -3.129%; B: 27.53%
* CS(=O)(=O)N1CCC2(CCCN(CCCc3ccccc3)C2=O)C1 (centres unmarked) : A: -8.717%; B: -1.61% and 13.25%
* O=C(C1CCOC1)N1CCc2ncnc(NC3CCC3)c2CC1 (centres unmarked) : A: -13.27%; B: 21.79% and 3.209%
* Cc1cc(NCc2cccc(C#N)c2)ccc1Br : A: 29.42%; B: 39.99% and 27.06%
* COc1cccc2c1N(CC(=O)Nc1ccc(Br)cn1)CCC2 : A: -0.0417% and 8.652%; B: 20.19%
* CCN1CCN(C2CCN(Cc3nnc(C(C)C)o3)CC2)C1=O : A: -4.351%; B: 8.848%
* O=C(O)C(F)(F)F.[H][C@@]12CN(C(=O)c3ccc(C)o3)C[C@@]1([H])N(Cc1cccnc1)C(=O)CO2 : A: -4.847% and -5.444%; B: -14.27% and 1.521%
* CCc1n[nH]c(C2CN(C(=O)c3ccnc(N(C)C)c3)CCO2)n1 (centres unmarked) : A: -14.44%; B: -45.69%
* Cc1nsc(NC(=O)NC2CCOCC2)n1 : A: -0.09653%; B: 7.075% and -8.858%
* c1cnnc(N2CCCC2CNCc2nc(C3CC3)no2)c1 (centres unmarked) : A: 14.94%; B: 12.51%
* Cc1cccc(C(=O)N(CC(=O)O)CC(C)C)c1 : A: 1.847%; B: -1.157%
* Cc1ccc(S(=O)(=O)N2CCC(S(C)(=O)=O)CC2)cc1C : A: 26.35%; B: 11.65%
* Cn1ncnc1NCc1ccc(F)cc1 : A: -7.168%; B: 4.322%
* COc1c(C2CCCN2Cc2noc(C)n2)c(C)nn1C (centres unmarked) : A: -80.54%; B: -35.16%
* CS(=O)(=O)c1cn[nH]c1C1CCCCN1C(=O)c1ccsc1 (centres unmarked) : A: -11.64%; B: -6.251%
* Cc1nc(CCN(C)C(=O)C2COc3ccccc3C2)no1 (centres unmarked) : A: -28.02%; B: -30.49%
* COc1cccc(CNc2cnn(C)c(=O)c2Cl)c1 : A: -20.04%; B: -20.05%
* CCCc1cncnc1N1CCCC2(CCC(=O)N(C3CCCC3)C2)C1 (centres unmarked) : A: -13.77%; B: 39.07%
* CCN(Cc1nc(C2CC2)no1)Cc1ccc(C#N)cc1F : A: 8.684%; B: 20.5%
* Cc1ccc(NC2CCN(C(=O)c3cccc4[nH]ncc34)CC2)nn1 : A: 2.084%; B: 24.8%
* O=C(O)C(F)(F)F.[H][C@@]12COC[C@]1(CN(C)C)CN(C(=O)CCc1ccccc1)C2 : A: -12.42%; B: 15.26%
* CC(C)OCCC1CCCCN1S(N)(=O)=O (centres unmarked) : A: -21.04%; B: -53.67% and 1.431%
* CC(C)c1cc(N2CCC(N)CC2)n2nccc2n1 : A: 13.79%; B: 19.63%
* O=S(=O)(CC1CCCCO1)Nc1cnn(Cc2ccccc2)c1 (centres unmarked) : A: 19.51%; B: 23.03%
* Cc1cccc(N(C)S(=O)(=O)c2cc(C(=O)O)cs2)c1C : A: -6.042%; B: 23.28%
* COc1c(F)cc(CN2CCC3(CC2)CN(C)C(=O)O3)cc1Cl : A: 6.611%; B: 2.807% and 21.06%
* [H][C@@]12CN(C(=O)NC3CCCCC3)C[C@]1(C(=O)O)CN(c1cnccn1)C2 : A: 9.167%; B: -15.35% and -2.467%
* COc1cc(CNCC(C)O)cc(Cl)c1OCc1ccc(C)cc1.Cl (centres unmarked) : A: 42.21%; B: 43.05%
* CCOc1ccc(C#N)cc1NCc1cc(C)on1 : A: -4.482%; B: 21.67%
* [H][C@@]12CCN(C[C@@H]1CN1CCOCC1)[C@@H](CNC(=O)Nc1ccccc1)C2 : A: -8.503%; B: -7.329% and -39.05%
* COc1ccsc1C(=O)NCCNc1ccccc1 : A: 10.48%; B: 4.748% and 29.02%
* O=C(CSCC1CC1)N1CCCC(c2nccn2Cc2ccccn2)C1 (centres unmarked) : A: -42.5% and -9.966%; B: -30.22%
* CCCC1CCN(C(=O)c2coc(COc3ccc(OC)cc3)n2)C1 (centres unmarked) : A: 1.78% and 1.59%; B: 5.857%
* CN1CCCC1CCn1ccnc1-c1nc2ccccc2[nH]1 (centres unmarked) : A: 8.085% and -1.947%; B: 35.01%
* Cc1cc(C(C)NC(=O)CCN2C(=O)c3ccccc3C2=O)c(C)o1 (centres unmarked) : A: -26.18%; B: -11.81%
* CCn1ncc2c1C(COC)CN(Cc1ccc(F)cc1)C2.O=C(O)C(F)(F)F.O=C(O)C(F)(F)F (centres unmarked) : A: -8.39%; B: -14.44%
* Cc1ccsc1C(O)CNC(=O)Cc1ccc(S(=O)(=O)C(C)C)cc1 (centres unmarked) : A: -17.93%; B: -14.78%

Some entries from above, unchanged:

compound,A,B
CCCc1cncnc1N1CCCC2(CCC(=O)N(C3CCCC3)C2)C1 (centres unmarked),-13.77,39.07
[H][C@@]12CN(C(=O)NC3CCCCC3)C[C@]1(C(=O)O)CN(c1cnccn1)C2,9.167,-15.35 and -2.467
O=C(CSCC1CC1)N1CCCC(c2nccn2Cc2ccccn2)C1 (centres unmarked),-42.5 and -9.966,-30.22
CN(C)C(C(=O)NCc1cc(C(C)(C)C)n[nH]1)c1ccc(F)cc1 (centres unmarked),-6.685,20.62
[H][C@@]12CCN(C[C@@H]1CN1CCOCC1)[C@@H](CNC(=O)Nc1ccccc1)C2,-8.503,-7.329 and -39.05

Data taken from ChEMBL document CHEMBL3988442, “University of Dundee, Small-Polar-MMV Screening Library” (2021).